These are yes or no findings as the source states them, for the method shown. In cells and extracts the contact can be indirect. Some binding calls cover weakened binding; strength is not graded here.
What was measured:
[1] = target: protein phosphatase 1α (PP1α), catalytic subunit, endogenous in PC3 cells (human (endogenous in PC3)) (UniProt P62136); experiment: co-IP; endogenous proteins from PC3 cell lysate (50 mM Tris pH 7.5, 10% glycerol, 5 mM MgCl2, 150 mM NaCl, 0.2% NP-40); anti-PML, anti-PP1α or anti-B-Raf antibody overnight at 4 °C, protein G sepharose, immunoblot
[2] = target: T1, Rb (UniProt P06400); experiment: co-IP; Supplementary Fig. 2g; legend not shown; anti-Rb is listed among the antibodies used for immunoprecipitation from cell lysates
T1 sequence: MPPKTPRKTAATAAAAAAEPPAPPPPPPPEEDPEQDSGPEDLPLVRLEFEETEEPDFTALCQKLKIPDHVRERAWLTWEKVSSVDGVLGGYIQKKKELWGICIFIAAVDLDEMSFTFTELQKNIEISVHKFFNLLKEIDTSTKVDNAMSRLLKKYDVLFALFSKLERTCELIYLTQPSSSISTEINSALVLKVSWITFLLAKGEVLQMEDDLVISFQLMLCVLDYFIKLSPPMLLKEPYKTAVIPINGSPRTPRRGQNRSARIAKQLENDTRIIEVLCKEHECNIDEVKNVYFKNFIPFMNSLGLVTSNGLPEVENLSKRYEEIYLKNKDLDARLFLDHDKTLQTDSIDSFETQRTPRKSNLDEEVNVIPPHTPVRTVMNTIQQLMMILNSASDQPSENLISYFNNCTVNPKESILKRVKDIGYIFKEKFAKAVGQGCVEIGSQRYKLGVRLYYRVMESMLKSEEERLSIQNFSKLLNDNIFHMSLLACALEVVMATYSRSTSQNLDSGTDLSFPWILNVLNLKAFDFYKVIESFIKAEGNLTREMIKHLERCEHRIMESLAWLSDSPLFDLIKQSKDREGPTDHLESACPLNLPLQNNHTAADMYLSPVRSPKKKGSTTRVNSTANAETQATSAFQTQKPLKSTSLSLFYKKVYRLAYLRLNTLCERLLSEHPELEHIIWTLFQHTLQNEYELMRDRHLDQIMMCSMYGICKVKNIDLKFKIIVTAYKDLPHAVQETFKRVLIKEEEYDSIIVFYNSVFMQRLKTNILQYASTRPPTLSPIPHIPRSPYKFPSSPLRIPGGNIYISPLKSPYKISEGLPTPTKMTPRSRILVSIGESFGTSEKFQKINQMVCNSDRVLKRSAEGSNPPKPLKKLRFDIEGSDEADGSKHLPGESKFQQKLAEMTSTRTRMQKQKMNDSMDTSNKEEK

The chains behind the UniProt entries cited, without tags or fusion partners.
UniProt P15056: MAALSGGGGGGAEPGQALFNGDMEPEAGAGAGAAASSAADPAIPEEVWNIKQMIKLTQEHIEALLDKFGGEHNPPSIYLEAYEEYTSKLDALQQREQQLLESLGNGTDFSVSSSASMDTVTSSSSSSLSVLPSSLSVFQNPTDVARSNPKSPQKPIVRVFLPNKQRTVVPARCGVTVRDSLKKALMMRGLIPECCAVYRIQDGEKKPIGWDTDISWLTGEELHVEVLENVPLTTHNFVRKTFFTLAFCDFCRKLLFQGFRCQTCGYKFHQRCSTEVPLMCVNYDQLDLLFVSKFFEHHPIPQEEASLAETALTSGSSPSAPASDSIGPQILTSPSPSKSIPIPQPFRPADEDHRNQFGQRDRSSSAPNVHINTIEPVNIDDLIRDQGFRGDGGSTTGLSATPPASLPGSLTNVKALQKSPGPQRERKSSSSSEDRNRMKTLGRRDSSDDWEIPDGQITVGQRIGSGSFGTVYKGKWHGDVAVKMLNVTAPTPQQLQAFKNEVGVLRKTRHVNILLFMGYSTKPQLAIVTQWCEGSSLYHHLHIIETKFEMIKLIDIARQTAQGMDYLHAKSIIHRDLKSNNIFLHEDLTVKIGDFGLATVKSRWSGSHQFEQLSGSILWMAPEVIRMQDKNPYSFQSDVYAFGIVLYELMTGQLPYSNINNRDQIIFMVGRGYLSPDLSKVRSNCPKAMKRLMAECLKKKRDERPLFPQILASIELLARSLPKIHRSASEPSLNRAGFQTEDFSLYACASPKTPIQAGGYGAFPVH
UniProt P29590: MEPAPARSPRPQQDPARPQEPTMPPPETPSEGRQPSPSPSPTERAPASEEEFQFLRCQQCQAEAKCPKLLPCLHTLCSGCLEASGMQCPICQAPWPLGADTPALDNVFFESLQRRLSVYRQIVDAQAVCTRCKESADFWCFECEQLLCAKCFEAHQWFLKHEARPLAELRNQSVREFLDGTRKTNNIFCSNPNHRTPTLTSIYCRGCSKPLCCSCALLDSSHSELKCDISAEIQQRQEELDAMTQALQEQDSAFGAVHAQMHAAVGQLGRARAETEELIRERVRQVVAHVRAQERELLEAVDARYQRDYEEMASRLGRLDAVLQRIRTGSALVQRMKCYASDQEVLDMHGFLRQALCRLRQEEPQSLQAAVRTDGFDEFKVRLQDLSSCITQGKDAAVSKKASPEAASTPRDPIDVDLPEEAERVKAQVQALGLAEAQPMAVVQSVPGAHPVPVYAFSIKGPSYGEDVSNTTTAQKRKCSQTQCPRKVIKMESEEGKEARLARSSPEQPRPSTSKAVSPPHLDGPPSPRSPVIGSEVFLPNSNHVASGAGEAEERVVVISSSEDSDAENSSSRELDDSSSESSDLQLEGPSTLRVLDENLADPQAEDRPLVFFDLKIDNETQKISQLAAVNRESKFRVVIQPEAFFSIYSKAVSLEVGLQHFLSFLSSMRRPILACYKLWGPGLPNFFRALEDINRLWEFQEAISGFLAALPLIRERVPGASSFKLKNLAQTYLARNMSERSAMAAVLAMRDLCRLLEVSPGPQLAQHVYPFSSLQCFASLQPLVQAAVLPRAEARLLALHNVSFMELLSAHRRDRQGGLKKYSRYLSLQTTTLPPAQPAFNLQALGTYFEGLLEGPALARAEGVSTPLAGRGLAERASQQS

[3] = target: B-Raf, endogenous in PC3 cells (human (endogenous in PC3)) (UniProt P15056); experiment: co-IP; endogenous proteins from PC3 cell lysate (50 mM Tris pH 7.5, 10% glycerol, 5 mM MgCl2, 150 mM NaCl, 0.2% NP-40); anti-PML, anti-PP1α or anti-B-Raf antibody overnight at 4 °C, protein G sepharose, immunoblot
[4] = target: promyelocytic leukemia (PML) tumor suppressor, endogenous in PC3 cells (human (endogenous in PC3)) (UniProt P29590); experiment: as above

| Substance | binding [1] | further results |
| --- | --- | --- |
| PP1α in the Rb binding experiment of Supplementary Fig. 2g (from UniProt P62136 1-330) |  | binding [2]: binds |
| promyelocytic leukemia (PML) tumor suppressor, endogenous in PC3 cells (from UniProt P29590 1-882) | binds |  |
| protein phosphatase 1α (PP1α), catalytic subunit, endogenous in PC3 cells (from UniProt P62136 1-330) |  | binding [3]: binds; binding [4]: binds |

The next lines start with results.

| binding [1] | Substance | further results |
| --- | --- | --- |
| binds | B-Raf, endogenous in PC3 cells (from UniProt P15056 1-766) |  |
| no binding | C-Raf, endogenous in PC3 cells (from UniProt P04049 1-648) |  |
